In paper PMC6428284:
No constants are given. Whether binding was seen depends on the method and setting. Some results given as binding are weak or reduced against the parent protein; the word gives no strength.

Chains of the proteins cited; added tags and fusions are not shown. Residues count along the entry.
UniProt Q12306, residues 1-96: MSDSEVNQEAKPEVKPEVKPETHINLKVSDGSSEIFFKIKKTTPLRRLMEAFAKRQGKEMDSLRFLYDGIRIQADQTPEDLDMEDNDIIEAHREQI

T1: Gal4 DNA binding domain-Yen1 (full-length YEN1 in pAS1, plasmid pJ90) (S. cerevisiae) (UniProt P40028)
T1 sequence: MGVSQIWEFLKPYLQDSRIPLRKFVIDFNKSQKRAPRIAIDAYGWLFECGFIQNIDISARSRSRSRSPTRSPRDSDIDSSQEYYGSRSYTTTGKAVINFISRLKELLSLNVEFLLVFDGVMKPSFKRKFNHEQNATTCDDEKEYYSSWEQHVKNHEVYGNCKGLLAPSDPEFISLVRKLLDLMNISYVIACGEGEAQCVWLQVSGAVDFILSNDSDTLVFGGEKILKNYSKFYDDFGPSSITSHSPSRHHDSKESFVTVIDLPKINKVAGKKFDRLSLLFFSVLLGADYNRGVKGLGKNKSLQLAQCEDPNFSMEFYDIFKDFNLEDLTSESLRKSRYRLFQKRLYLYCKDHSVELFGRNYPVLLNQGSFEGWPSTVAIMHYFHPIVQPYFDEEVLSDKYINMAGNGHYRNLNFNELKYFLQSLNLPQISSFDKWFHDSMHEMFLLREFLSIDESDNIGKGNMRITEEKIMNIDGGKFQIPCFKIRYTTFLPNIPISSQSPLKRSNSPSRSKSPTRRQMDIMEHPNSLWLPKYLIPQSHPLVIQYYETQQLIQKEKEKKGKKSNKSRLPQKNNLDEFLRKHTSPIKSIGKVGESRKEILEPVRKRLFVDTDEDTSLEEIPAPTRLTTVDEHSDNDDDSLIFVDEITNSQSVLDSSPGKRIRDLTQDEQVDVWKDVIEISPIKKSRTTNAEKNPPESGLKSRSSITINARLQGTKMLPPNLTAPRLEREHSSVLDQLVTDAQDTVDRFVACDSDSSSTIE

B1: GAL4AD-Uls1 (aa 269–853), library clone (domain or fragment, UniProt Q08562 269-853)
chain: LPSNLSSVESSLKNETAKVEGKTTVRLPGLQNNVALLEQEQSELFKHFSEQPVDISDFGRKIKRKHSGDFADNKILKRPILPSKNMDHTTHNSHDSEQKNSSIIILSDEDESGAGINDIESPLKVSEPNTADALRSSVPEVISLLDLPNIDLNNSVIKEASGSNSIPTSETDAQSSSSSVLQGTIMTEQATQSSQHECNSSLDTLKKNHQKLLKDLNSRESELRNALSCCKTNSEILRRKLSRREKEVSDAEKHWQLLLTSMARGGRTISSTQQILVDEAENQLNKLKEKRQLTKSKLDSINLKMYNYNEQWKSFVHSKNINLQKSLAALERSARDSKASATVNKRNECLAEKEKLDQMLKEGTLSFSTYKQLTGEIQQKLNDLKLGDQRTTDINSVLPIVRQPLAKRDLFIKSIDTAKDLLAKNTSRTEMTKRILYRHLDNLVSYKNFFEDGRSLIDINRRHVAHESAQILFTNGVKMPIVFETLQDYGIKFSNPAIVNPDRRAQYFKSIEVARDLISKSTRSEDAKRKITRFLNIIEEFRKDIDTGFPPTPLKREGVGKAVVGLRQQGLKMDRLYENLRRYKI
B2: GAL4AD-Fir1 (aa 629–876), library clone (domain or fragment, UniProt P40020 629-876)
chain: QNKEPTPLNQTPTDLIGKQRNCVNPHSIPFSVLSSNSQSSQSGSSKSSYNSEFSSNTAITDTTSQPSVTINRSTLEHNFIEEKRSIKNLGHGPPSQKNNYSFPRNKNTPSNRHDLDFNTIYEKRDGKMVEVILLDEDEDVGLKNNDISRTRVCHAQKAKNEQQKKRLSHCNEILGMCDKTADDAKRIIYQLVNEKHKFSEKGQQTKPKKSRVLPPLPFPLYDEKGNSLIPNKYQSSIHNDIPSHRKLK
B3: GAL4AD-Spo21 (aa 171–424), library clone (domain or fragment, UniProt Q12411 171-424)
chain: LLQNNNHFRHNKEIPQSKGSSNINTASIMSQYNVDTQATAIMSDMQKQYDSQQMTSPFVNEDLHFDPNGEVSHVIKAIFKEIGYKYDDFSDIPVFQLMQEMYQLVKKNSSARRTKITDYASKLKEKEAQLKSQNDKILKLETTNKAYKTKYKEVSLENKKIKEAFKELDNESYNHDEELLKKYKYTRETLDRVNREQQLIIDQNEFLKKSVNELQNEVNATNFKFSLFKEKYAKLADSITELNTSTKKREALGE
B4: GAL4AD-Pes4 (aa 200–456), library clone (domain or fragment, UniProt P39684 200-456)
chain: DTFSRYGKILSCKLDSRKDIGFVYFEDEKTARNVIKMYNNTSFFGKKILCGIHFDKEVRSVPNFETQKSRLDAETIIEKEQSLNEKHSKGNDKESKNIYSSSQNSIFIKNLPTITTRDDILNFFSEVGPIKSIYLSNATKVKYLWAFVTYKNSSDSEKAIKRYNNFYFRGKKLLVTRAQDKEERAKFIESQKISTLFLENLSAVCNKEFLKYLCHQENIRPFKIQIDGYDENSSTYSGFIKFRNFEDATRIFNFLNN
B5: GAL4AD-Oaf1 (aa 19–283), library clone (domain or fragment, UniProt P39720 19-283)
chain: STKPYSEAFFLGFNNPTPGLEAEHSSTSPAPENSETHNRKRNRILFVCQACRKSKTKCDREKPECGRCVKHGLKCVYDVSKQPAPRIPSKDAIISRLEKDMFYWKDKAMKLLTEREVNESGKRSASPINTNNASGDSPDTKKQHKMEPIYEQSGNGDINNGTRNDIEINLYRSHPTMIMSKVMKREVKPLSENYIIIQDCFLKILVTSVFLDTSKNTMIPALTANANITRAQPSVANNLLKLKEMLIRQCQTEDEKNRVNEFTDR

Assays:
[1] = molecular target: T1, Gal4 DNA binding domain-Yen1 (full-length YEN1 in pAS1, plasmid pJ90) (S. cerevisiae); assay: two-hybrid; strain PJ69-4A (wild-type SMT3); GAL4BD-Yen1 or truncated/mutant derivatives as bait, GAL4AD fusions (pACTII) as prey; ten-fold serial dilutions spotted on SC-His and SC-Ade plates, 3 days at 30°C; library screen and directed tests
[2] = molecular target: T1, Gal4 DNA binding domain-Yen1 (full-length YEN1 in pAS1, plasmid pJ90) (S. cerevisiae); assay: two-hybrid; as a1, but in PJ69-4A with the genomic smt3F37A point mutation (SAY1566), which reduces the interaction of SUMO with SIMs
[3] = molecular target: T1, Gal4 DNA binding domain-Yen1 (full-length YEN1 in pAS1, plasmid pJ90) (S. cerevisiae); assay: two-hybrid; strain PJ69-4A (wild-type SMT3); GAL4BD-Yen1 or truncated/mutant derivatives as bait, GAL4AD fusions (pACTII) as prey; ten-fold serial dilutions spotted on SC-His and SC-Ade plates, 3 days at 30°C; library screen and directed tests; remark: listed apart in the source

Row | Molecule | binding [1] | binding [2] | binding [3]
1 | GAL4AD-Smt3 (1–96) (plasmid pF12) (from UniProt Q12306 1-96) (domain or fragment) | no binding |  | 
2 | B1 |  | binds | binds
3 | B2 |  | binds | binds
4 | B3 |  | binds | binds
5 | B4 |  | binds | binds
6 | B5 |  | binds | binds
